The target of the test is FLAG/HA-double-tagged METTL8 (human) (UniProt Q9H825). Put plainly: affinity purification with mass spectrometry; large-scale (>10 L) purification of the FLAG/HA-METTL8 complex from 100 mg HeLaS3 nuclear extract by a scheme of chromatographic steps; FASP mass spectrometry (n = 3); controls: NHS column with IgG, METTL8 KO cells; complex resistant to RNase A.

Results are given in words; binding and its absence hold for the method and conditions named. In cells and extracts the contact can be indirect. These calls come from enrichment with a bait or labelling near it, and not all partners need be listed. Where a sequence is shown, tags or fusion partners need not be part of it.

The values below come from publication PMC7082549.

B1: THOC1 (protein, UniProt Q96FV9 1-657)
chain: MSPTPPLFSLPEARTRFTKSTREALNNKNIKPLLSTFSQVPGSENEKKCTLDQAFRGILEEEIINHSSCENVLAIISLAIGGVTEGICTASTPFVLLGDVLDCLPLDQCDTIFTFVEKNVATWKSNTFYSAGKNYLLRMCNDLLRRLSKSQNTVFCGRIQLFLARLFPLSEKSGLNLQSQFNLENVTVFNTNEQESTLGQKHTEDREEGMDVEEGEMGDEEAPTTCSIPIDYNLYRKFWSLQDYFRNPVQCYEKISWKTFLKYSEEVLAVFKSYKLDDTQASRKKMEELKTGGEHVYFAKFLTSEKLMDLQLSDSNFRRHILLQYLILFQYLKGQVKFKSSNYVLTDEQSLWIEDTTKSVYQLLSENPPDGERFSKMVEHILNTEENWNSWKNEGCPSFVKERTSDTKPTRIIRKRTAPEDFLGKGPTKKILMGNEELTRLWNLCPDNMEACKSETREHMPTLEEFFEEAIEQADPENMVENEYKAVNNSNYGWRALRLLARRSPHFFQPTNQQFKSLPEYLENMVIKLAKELPPPSEEIKTGEDEDEEDNDALLKENESPDVRRDKPVTGEQIEVFANKLGEQWKILAPYLEMKDSEIRQIECDSEDMKMRAKQLLVAWQDQEGVHATPENLINALNKSGLSDLAESLTNDNETNS
In the case of B1, the binding result is recorded as “binds”.
